At least one structure is not confirmed: it was looked up by name or label, or the drawing left a doubt.
Assay: Loading of dexamethasone into polyacrylic acid-based coatings using aqueous solutions
Type: physicochemical

## C[C@@H]1C[C@H]2[C@@H]3CCC4=CC(=O)C=C[C@]4(C)[C@@]3(F)[C@@H](O)C[C@]2(C)[C@@]1(O)C(=O)CO [dexamethasone]
  amount of dexamethasone that can be loaded into polyacrylic acid-based coatings: about 1 μg

Source: patent publication US20130304029A1, “LOADING AND RELEASE OF WATER-INSOLUBLE DRUGS” (Boston Scientific Scimed, Inc., priority 1997, published 2013)
